{"source": "patent US6368785B1", "about": "(Global Hemostasis Institute MGR AB, priority 1997, dated 2002)", "key": {"[1]": {"test_system": "prothrombin complex (coagulation factors VII, X and II)", "experiment": "coagulation time in prothrombin complex (PK) system with added citrate or iso-citrate", "type": "biochemical", "details": "5, 10 or 20 mM added; Ca^2+ activity 0.7 to 9 mM", "protocol": "Activated partial thromboplastin time (APTT), prothrombin time (PT), prothrombin complex, (PK), assay, factor VIII and fibrin D-dimer were determined in compliance with manufacturers recommendations using the following reagents; PTT Automate, Diagnostica Stago, Asnieres-sur-Seine, France; Thromborel® S, Behring Diagnostics GmbH, Marburg, Germany; PK-reagent GHI 129, Global Hemostasis Institute MGR, Linköping, Sweden; and Coamatic® Factor VIII, Chromogenix, Mölndal, Sweden. The tests were performed on an Automated Coagulation Laboratory instrument, ACL, model 810 (Instrumentation Laboratory, Milan, Italy).\nCoagulation analysis of blood and blood plasma are performed in many different ways. Most such analysis have the following in common. […] This Ca^2+ buffer capacity was determined in a system composed of sample, bovine plasma deficient in vitamin K dependent coagulation factors and rabbit brain thromboplastin. […] For each level of addition, the calcium ion buffering capacity of the analytical system was determined. The buffer capacity was determined at Ca^2+ activity in the range of 1 to 4 mM.\nThe assay response of the system described in Example 5 is investigated. […] The coagulation time is recorded. And after compacting of the coagulum by centrifugation for 3 minutes at 10,000×g, the Ca2+ activity is determined. […]"}, "[2]": {"experiment": "addition of CaCl2 solution to anti-coagulant solutions to reach physiological Ca^2+", "type": "physicochemical", "details": "solutions of the Ca^2+ binding substance plus CaCl2", "source_text": "This gave rise to the idea that these substances could perform as anticoagulants also at near physiological levels of Ca^2+ activity. […] This was possible with iso-citrate but not with citrate. […] The following therefore only describes experiments with iso-citrate."}, "blood [3]": {"test_system": "blood", "experiment": "inspection of anti-coagulated blood stored at room temperature for presence of coagulum", "type": "biochemical", "set-up": "key: ‘C’ for coagulum; ‘NC’ for no coagulum"}, "[4]": {"experiment": "potentiometric determination of Ca^2+ activity and pH in anti-coagulated blood/plasma"}, "[5]": {"experiment": "Ca^2+ buffering capacity of prothrombin complex (PK) analytical system", "type": "physicochemical", "details": "5 or 10 mM final addition; Ca^2+ activity 1 to 4 mM"}, "blood [6]": {"test_system": "blood", "experiment": "inspection of anti-coagulated blood stored at room temperature for presence of coagulum", "type": "biochemical", "set-up": "key: coagulum formation is indicated by a capital C; no coagulum is indicated by NC"}, "blood [7]": {"test_system": "blood", "experiment": "inspection of anti-coagulated blood stored at room temperature for presence of coagulum", "type": "biochemical", "details": "up to 48 hours"}, "[8]": {"details": "blood with 5 mM tri-sodium iso-citrate"}, "[9]": {"details": "blood with 10 mM tri-sodium iso-citrate"}, "[10]": {"details": "blood with 13 mM tri-sodium iso-citrate"}, "[11]": {"details": "blood with 15 mM tri-sodium iso-citrate"}, "[12]": {"details": "blood with 20 mM tri-sodium iso-citrate"}, "[13]": {"details": "blood with 25 mM tri-sodium iso-citrate"}, "[14]": {"details": "blood with 30 mM tri-sodium iso-citrate"}, "[15]": {"details": "blood with 30 mM iso-citrate plus CaCl2 (Ca^2+ about 1 mM)"}, "[16]": {"details": "blood with 40 mM iso-citrate plus CaCl2 (Ca^2+ about 1 mM)"}, "[17]": {"details": "blood with 60 mM iso-citrate plus CaCl2 (Ca^2+ about 1 mM)"}, "[18]": {"details": "blood with 80 mM iso-citrate plus CaCl2 (Ca^2+ about 1 mM)"}}, "note": "For at least one compound, name, drawing or mass did not settle the structure. Marks after values point to notes of the source that are not given here."}
{"smiles": "O=C(O)CC(C(=O)O)C(O)C(=O)O", "note": "(racemic) [iso-citrate, Trisodium DL-iso-citrate]", "values": [{"measurement": "inhibition of coagulation (coagulation time) in PK system", "setting": "[1]", "value": "inhibit coagulation at all Ca^2+ activity levels"}, {"measurement": "making solutions with physiological levels of Ca^2+ by adding CaCl2 solution", "setting": "[2]", "value": "possible"}, {"measurement": "coagulum, 0-1 hour", "setting": "blood [3]; [8]", "value": "C"}, {"measurement": "coagulum, 1-5 hours", "setting": "blood [3]; [8]", "value": "C"}, {"measurement": "coagulum, 5-24 hour", "setting": "blood [3]; [8]", "value": "C"}, {"measurement": "coagulum, 24-48 hours", "setting": "blood [3]; [8]", "value": "C"}, {"measurement": "coagulum, 0-1 hour", "setting": "blood [3]; [9]", "value": "C"}, {"measurement": "coagulum, 1-5 hours", "setting": "blood [3]; [9]", "value": "C"}, {"measurement": "coagulum, 5-24 hour", "setting": "blood [3]; [9]", "value": "C"}, {"measurement": "coagulum, 24-48 hours", "setting": "blood [3]; [9]", "value": "C"}, {"measurement": "coagulum, 0-1 hour", "setting": "blood [3]; [10]", "value": "C"}, {"measurement": "coagulum, 1-5 hours", "setting": "blood [3]; [10]", "value": "C"}, {"measurement": "coagulum, 5-24 hour", "setting": "blood [3]; [10]", "value": "C"}, {"measurement": "coagulum, 24-48 hours", "setting": "blood [3]; [10]", "value": "C"}, {"measurement": "coagulum, 0-1 hour", "setting": "blood [3]; [11]", "value": "NC"}, {"measurement": "coagulum, 1-5 hours", "setting": "blood [3]; [11]", "value": "C"}, {"measurement": "coagulum, 5-24 hour", "setting": "blood [3]; [11]", "value": "C"}, {"measurement": "coagulum, 24-48 hours", "setting": "blood [3]; [11]", "value": "C"}, {"measurement": "coagulum, 0-1 hour", "setting": "blood [3]; [12]", "value": "NC"}, {"measurement": "coagulum, 1-5 hours", "setting": "blood [3]; [12]", "value": "NC"}, {"measurement": "coagulum, 5-24 hour", "setting": "blood [3]; [12]", "value": "NC"}, {"measurement": "coagulum, 24-48 hours", "setting": "blood [3]; [12]", "value": "NC"}, {"measurement": "coagulum, 0-1 hour", "setting": "blood [3]; [13]", "value": "NC"}, {"measurement": "coagulum, 1-5 hours", "setting": "blood [3]; [13]", "value": "NC"}, {"measurement": "coagulum, 5-24 hour", "setting": "blood [3]; [13]", "value": "NC"}, {"measurement": "coagulum, 24-48 hours", "setting": "blood [3]; [13]", "value": "NC"}, {"measurement": "coagulum, 0-1 hour", "setting": "blood [3]; [14]", "value": "NC"}, {"measurement": "coagulum, 1-5 hours", "setting": "blood [3]; [14]", "value": "NC"}, {"measurement": "coagulum, 5-24 hour", "setting": "blood [3]; [14]", "value": "NC"}, {"measurement": "coagulum, 24-48 hours", "setting": "blood [3]; [14]", "value": "NC"}, {"measurement": "Ca^2+", "setting": "[4]; blood with 5 mM tri-sodium iso-citrate, determined in serum", "value": "0.43* mM"}, {"measurement": "Ca^2+", "setting": "[4]; blood with 10 mM tri-sodium iso-citrate, determined in serum", "value": "0.27* mM"}, {"measurement": "Ca^2+", "setting": "[4]; blood with 13 mM tri-sodium iso-citrate, determined in serum", "value": "0.21* mM"}, {"measurement": "Ca^2+", "setting": "[4]; [11]", "value": 0.20, "unit": "mM"}, {"measurement": "Ca^2+", "setting": "[4]; [12]", "value": 0.18, "unit": "mM"}, {"measurement": "Ca^2+", "setting": "[4]; [13]", "value": 0.15, "unit": "mM"}, {"measurement": "Ca^2+", "setting": "[4]; blood with 30 mM iso-citrate plus CaCl2, in plasma within 15 minutes of collection", "value": 1.00, "unit": "mM"}, {"measurement": "Ca^2+", "setting": "[4]; [14]", "value": 0.12, "unit": "mM"}, {"measurement": "Ca^2+", "setting": "[4]; blood with 40 mM iso-citrate plus CaCl2, in plasma within 15 minutes of collection", "value": 0.95, "unit": "mM"}, {"measurement": "Ca^2+", "setting": "[4]; blood with 60 mM iso-citrate plus CaCl2, in plasma within 15 minutes of collection", "value": 0.98, "unit": "mM"}, {"measurement": "Ca^2+", "setting": "[4]; blood with 80 mM iso-citrate plus CaCl2, in plasma within 15 minutes of collection", "value": 0.97, "unit": "mM"}, {"measurement": "effect on Ca^2+ buffering capacity of a system used for coagulation analysis", "setting": "[5]", "value": "greater effect than citrate"}, {"measurement": "coagulum, 0-1 hour", "setting": "blood [6]; [15]", "value": "C"}, {"measurement": "coagulum, 1-5 hours", "setting": "blood [6]; [15]", "value": "C"}, {"measurement": "coagulum, 5-24 hour", "setting": "blood [6]; [15]", "value": "C"}, {"measurement": "coagulum, 24-48 hours", "setting": "blood [6]; [15]", "value": "C"}, {"measurement": "coagulum, 0-1 hour", "setting": "blood [6]; [16]", "value": "NC"}, {"measurement": "coagulum, 1-5 hours", "setting": "blood [6]; [16]", "value": "C"}, {"measurement": "coagulum, 5-24 hour", "setting": "blood [6]; [16]", "value": "C"}, {"measurement": "coagulum, 24-48 hours", "setting": "blood [6]; [16]", "value": "C"}, {"measurement": "coagulum, 0-1 hour", "setting": "blood [6]; [17]", "value": "NC"}, {"measurement": "coagulum, 1-5 hours", "setting": "blood [6]; [17]", "value": "NC"}, {"measurement": "coagulum, 5-24 hour", "setting": "blood [6]; [17]", "value": "NC"}, {"measurement": "coagulum, 24-48 hours", "setting": "blood [6]; [17]", "value": "NC"}, {"measurement": "coagulum, 0-1 hour", "setting": "blood [6]; [18]", "value": "NC"}, {"measurement": "coagulum, 1-5 hours", "setting": "blood [6]; [18]", "value": "NC"}, {"measurement": "coagulum, 5-24 hour", "setting": "blood [6]; [18]", "value": "NC"}, {"measurement": "coagulum, 24-48 hours", "setting": "blood [6]; [18]", "value": "NC"}, {"measurement": "minimal amount needed to anti-coagulate blood over an extended period of time", "setting": "blood [7]", "value": 20, "unit": "mM"}]}
